Experimental data as given in PMC11236974.

T1: FliG of the polar flagellar system, full length (pulldown prey) (S. putrefaciens)
T1 sequence: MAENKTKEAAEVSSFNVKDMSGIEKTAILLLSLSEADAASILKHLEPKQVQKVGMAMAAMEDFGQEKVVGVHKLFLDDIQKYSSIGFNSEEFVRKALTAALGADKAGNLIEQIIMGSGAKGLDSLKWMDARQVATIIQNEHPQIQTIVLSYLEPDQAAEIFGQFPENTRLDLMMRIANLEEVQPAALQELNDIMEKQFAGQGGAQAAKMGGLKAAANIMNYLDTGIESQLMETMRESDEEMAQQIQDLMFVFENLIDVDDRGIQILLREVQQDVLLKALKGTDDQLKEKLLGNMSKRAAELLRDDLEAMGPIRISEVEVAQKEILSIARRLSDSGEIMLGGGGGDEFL


Columns and labels:
[1] = biological target: T1, FliG of the polar flagellar system, full length (pulldown prey) (S. putrefaciens); assay: pull-down; cultures of StrepII-tagged bait and His-tagged tested proteins combined and lysed; lysate on MagStrep Strep-Tactin XT beads, 30 min, 4 °C; three washes with SEC buffer; eluted with D-biotin; Coomassie-stained SDS-PAGE
[2] = biological target: StrepII-tagged B-domain truncation with the first 60 amino acids of FlhF (S. putrefaciens) (UniProt A4Y8J9); assay: as above
[3] = biological target: FlhF (yeast two-hybrid bait) (S. putrefaciens) (UniProt A4Y8J9); assay: two-hybrid; yeast two-hybrid; bait fused to the Gal4 DNA-binding domain, preys to the Gal4 activation domain; strain PJ69-4A; growth on -HLT (HIS3) and -ALT (ADE2) plates, 3 days at 30 °C

Molecule | binding [3] | further results
cytoplasmic domain of FliF (pulldown prey) (S. putrefaciens) (domain or fragment) | – | binding [1]: binds
FliG of the polar flagellar system, full length (pulldown prey) (protein, UniProt A0ABX8X876 1-348) MAENKTKEAAEVSSFNVKDMSGIEKTAILLLSLSEADAASILKHLEPKQVQKVGMAMAAMEDFGQEKVVGVHKLFLDDIQKYSSIGFNSEEFVRKALTAALGADKAGNLIEQIIMGSGAKGLDSLKWMDARQVATIIQNEHPQIQTIVLSYLEPDQAAEIFGQFPENTRLDLMMRIANLEEVQPAALQELNDIMEKQFAGQGGAQAAKMGGLKAAANIMNYLDTGIESQLMETMRESDEEMAQQIQDLMFVFENLIDVDDRGIQILLREVQQDVLLKALKGTDDQLKEKLLGNMSKRAAELLRDDLEAMGPIRISEVEVAQKEILSIARRLSDSGEIMLGGGGGDEFL | – | binding [2]: binds
FliM of the polar flagellar system (yeast two-hybrid prey) (protein, UniProt A0ABX8X8Z6 1-343) MSDLLSQDEIDALLHGVDDVDDDDDLDAASQDARSYDFSSQDRIVRGRMPTLEIVNERFARHLRISMFNMMRRAAEVSINGVQMLKFGEYVHTLFVPTSLNMVRFSPLKGTALITMEARLVFILVDNFFGGDGRFHAKIEGREFTPTERRIVQLLLKIIFEDYKDAWAPVMDVEFDYLDSEVNPAMANIVSPTEVVVINSFHIEVDGGGGDFHITMPYSMIEPIRELLDAGVQSDKQDTDMRWSQALHDEIMDVKVGFDACVVEHELTLKDVMNFKAGDIIPVELPEYIMMKIEDLPTYRCKMGRSRDNLALKIYEKIPRPETVKTELQLVTRKGKARDISEL | no binding | –
FliN of the polar flagellar system (yeast two-hybrid prey) (protein, UniProt A0ABX8X9E3 1-127) MSTEDTGDDWAAAMAEQALEEANAVALDELVDDSQPISKADAAKLDTILDIPVTISMEVGRSFISIRNLLQLNQGSVVELDRVAGEPLDVMVNGTLIAHGEVVVVNDKFGIRLTDVISQTERIKKLK | no binding | –

Results are given in words; binding and its absence hold for the method and conditions named. For some of these results: Binding seen in cells or lysates may run through a third protein. For some of these results: Binding can be weak; no strength is given. Tags and fused reporters may be left off the sequences shown.
